# Values quoted from earlier work in patent publication US20240165126A1, “TIANEPTINE OXALATE AND NALOXONE COMBINATION FOR THE TREATMENT OF MAJOR DEPRESSIVE DISORDER” (TONIX PHARMACEUTICALS HOLDING CORP., priority 2021, published 2024).
# Conditions: Wagstaff et al. 2001
compound,measurement,value
"CN1c2ccccc2C(NCCCCCCC(=O)O)c2ccc(Cl)cc2S1(=O)=O (stereo not shown) [Tianeptine, 7-[(3-chloro-6-methyl-5,5-dioxo-11H-benzo[c][2,1]benzothiazepin-11-yl)amino]heptanoic acid]",bioavailability,about 99%
